About 210 (0.4%) of roughly 52,000 sequences were called active.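 The calls were made as follows: active = gene whose silencing raises cell survival under the drug, median off-target-corrected z-score across its silencing RNAs 2 or more; inactive = the rest.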 This is one part of the list.
Test: Resistance to Poly (ADP-Ribose) Polymerase inhibitor: Gene Identification via Genome-wide siRNA Screen
Conditions: mouse BRCA2 R2336H ES cells, olaparib, CellTiter-Glo viability; stronger effect = higher value
Outline: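 Mouse BRCA2 R2336H ES cells were reverse-transfected with siRNA (20 nM final), treated at 48 h with 500 nM olaparib, and read by CellTiter-Glo after 72 h. Scores: MAD-based z per siRNA, median per gene, seed off-target correction.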

Sequence | z-score
CUGGUUUUUAGUCUUUCAUTT against 4930471G03Rik | inactive: 1.24
GGACAACUUUGAGGAGAUGTT against Tubg2 | inactive: -0.53
CCCAUAACAUUGGUGAUUATT against V1rf2 | inactive: 1.48
GACAAAACAAUUACCUACATT against Olfr806 | inactive: 0.0971
GCGAAAUUCGAGUUCGGUUTT against Col17a1 | inactive: 0.111
GGAGCUUUUUAUGUUUUAGTT against 1700047I17Rik | inactive: 0.887
GGAUUUCACUUGAGAAUGATT against Grem1 | inactive: -1.06
GGACAUUCCCAAAGAAAAUTT against Usp29 | inactive: -0.101
GCCAAGCAUUACCAUACUUTT against Rab21 | inactive: 0.582
GGACCACCGUGAUCAACAUTT against Ifitm2 | inactive: -1.33
GGACAAUGGGAGCUAUCGATT against Gpld1 | inactive: -0.373
GCGUAAAACUUCAAGAGCUTT against DXImx50e | inactive: 0.219
CCGAGGUGAUUAGGAUAACTT against Traf3ip1 | inactive: -0.813
GGGACAUUCCUUAUCAUAATT against Pde3a | inactive: 0.174
GGCUGGACACUGAGAAAAATT against Adcy4 | inactive: -0.919
GGGCAGAAGCUGUGAAAUCTT against BC037034 | inactive: 0.422
AACUAUGUCUGCUAUGUCATT against Ela2 | inactive: 0.739
CCCUUAUCUCAUGUGUUAATT against Olfr74 | inactive: 0.979
GGUUCAGGUUCUUCUAAAATT against Cd109 | inactive: 0.632
GGAAAAUCAAUACAUUGGATT against Pxk | inactive: -0.042
CCUUUAGGUUACAAAAACCTT against Pdgfd | inactive: 0.39
GCCUGUACAUGACGGAAAGTT against Bag4 | inactive: -0.395
GGCUUAGAUCUACUAUUUCTT against Fv4 | inactive: 0.902
CCUCGAAACUCAUUUCCAGTT against Prkch | inactive: -0.403
CCAGCACUCGAAAAAGAUGTT against Pdzk8 | inactive: 0.548
GGAGUUAGAUGCCCUCAAGTT against 1810073E21Rik | inactive: -0.0814

Part of the list above in another layout.
Sequence	z-score
GGUUCAGGUUCUUCUAAAATT against Cd109	inactive: 0.632
GGAAAAUCAAUACAUUGGATT against Pxk	inactive: -0.042
CCUUUAGGUUACAAAAACCTT against Pdgfd	inactive: 0.39
GCCUGUACAUGACGGAAAGTT against Bag4	inactive: -0.395
GGCUUAGAUCUACUAUUUCTT against Fv4	inactive: 0.902
CCUCGAAACUCAUUUCCAGTT against Prkch	inactive: -0.403
CCAGCACUCGAAAAAGAUGTT against Pdzk8	inactive: 0.548

Taken from above:
Under z-score, GCGAAAUUCGAGUUCGGUUTT against Col17a1 reads inactive: 0.111
Under z-score, GGAGUUAGAUGCCCUCAAGTT against 1810073E21Rik reads inactive: -0.0814

Following part.

Sequence | z-score
GGUUUUCCAAAAAACACCCTT against 1700084J12Rik | inactive: 0.919
GGCAACUGACUAGCUGAUUTT against Atp2a1 | inactive: 1.29
GGAUCCUCACAAUAAACUUTT against Sult2b1 | inactive: -0.204
GGUAAAUGUCUAGAAAUGGTT against Abcd2 | inactive: 0.484
GGGAAUUUGGGCAUGAUCATT against Olfr44 | inactive: -3.04
GGCGAGAAUUUCAUCGGGATT against Tulp1 | inactive: 0.635
GGAGAAGAUUUUCUGUAUCTT against C630015F21Rik | inactive: -0.509
CGUCAACUCUACUGGACCATT against Grp | inactive: 1.46
CCAAAGGUGACCACAGAUUTT against 6230401O10Rik | inactive: 0.0847
GGGAAGAACAUCUCUGCUCTT against S100a3 | inactive: -1.37
GGACAUGCUUAUCCUUUGUTT against Slc38a5 | inactive: -0.0803
GGGUGAAAUUUUUAAUCGGTT against Lbp | inactive: 0.477
GGAUCCUUCGGGUCUUAAATT against Kctd9 | inactive: -1.18
GGAUGAUUCCAAGAUGCUATT against Lin28b | inactive: -0.268
GGAUGAAAGUCCUGGACAGTT against Gli3 | inactive: -0.309
GCUUAUAAAAGUGAAUCGGTT against 1190006E07Rik | inactive: -0.353
GGUCUUCCAAGGUCAGAAGTT against Cyp2d10 | inactive: -0.139
GCAGCCUCGUUUAACUAAATT against 1700034P14Rik | inactive: -0.967
GCUACCGUGGGCGAUGUAATT against Dbi | inactive: -2.69
CCACACCUAUCUUCUACGUTT against C730026E21Rik | inactive: 0.164
CCUUUGUGGAAUACGUCAUTT against Fa2h | inactive: 0.0687
GGACAAAGGGAUAAUGCUGTT against BC008184 | inactive: 0.0336
AGUCUACAACUACUCCUGUTT against Glrx2 | inactive: 1.01
GAGGUCAUUAUACCAUUGGTT against Tuba7 | inactive: -0.352
GGAGCAAGCCUUUAAAAGATT against Hnrpk | inactive: -2.22
GGAGAUCACACAACAUUUUTT against Ndrg1 | inactive: -1.78

Sequence | z-score
GCCAAGUGUAGGGACUCAGTT against A630052C17Rik | inactive: -1.44
GGCCUCCCUACUUGAAGACTT against Crip3 | active: 1.71
GGAAGAUUUACAAAAACUGTT against BC036718 | inactive: -0.119
GGUUAAAUAUACCUAAGGATT against Spo11 | inactive: 0.83
GGCCAAACAUAGAACUGGUTT against Mbd3l2 | inactive: -1.12
CCAUAUUCAAGGGUGAAAUTT against Dsg3 | inactive: 0.197
GCGACAUCACAAGAAUCGATT against Fancd2 | inactive: 1.7
GGGUUGACUUCAAGAACAUTT against Cxcl2 | inactive: -0.429
GGAAAGCGAUACCUAAACATT against 9330174J19Rik | inactive: -1.67
GGACAACUCAGAUUGGACUTT against Adprhl2 | inactive: -1.57
GGAAUCUUGUUAGCUAUGGTT against Olfr615 | inactive: -0.943
GGAGCCCUUUCUACUGGUGTT against Snn | inactive: -0.955
GGAAAAUGUCCCACUUUUATT against Olfr70 | inactive: 0.292
CCCUGGUUGUUUGUAGAGUTT against 1700052N19Rik | inactive: 1.13
GGAAGAUCACAGAAUUCUCTT against Abp1 | inactive: 0.0538
CCAGCUAGAAAAUCUCUCCTT against Cnn2 | inactive: 0.00018
GCAGAUGUCAUGGUAACUCTT against Suv420h1 | inactive: -0.316
GGAGCGGAAUUUAUGGCGATT against 6720416L17Rik | inactive: 0.28
GGUCUCAGACAAAGAUGAATT against Rg9mtd1 | inactive: -0.136
GGAAGUUUUGAAACUUGUUTT against Gabrp | inactive: -0.0545
GGGAUUCCUGGACAACAUUTT against Glce | inactive: -2.07
GGUGGAUGAAGUAAACCAGTT against Chrna3 | inactive: -0.208
GCCUGGAGACUACAUAUCCTT against Cdc20 | inactive: -2.37
GGACCUGGAUCUAUCCUACTT against Lrfn1 | inactive: 0.431
GCUGUGACAGAAGCUUUCGTT against Vars2l | inactive: 0.0993
GGUCAGUCAACAUGAACUUTT against Acad9 | inactive: 1.49

Sequence | z-score
GGAGGAGUGCAAGGACUUUTT against 0610009H04Rik | inactive: -0.98
GCGGCUCACAAGAGUAUCGTT against 2310026E23Rik | inactive: -2.05
GGAAAUUCAAAAAGUGUGUTT against 2010301N04Rik | inactive: 1.27
GGUCAGAGAAAGAUGUAAATT against 1300002C08Rik | inactive: -0.203
GGCAUGACAUGUAGAUGGCTT against 1700055N04Rik | inactive: -0.354
GGCUUCCUCCACUCUUUCCTT against Rhbg | inactive: 0.815
GGGUGACAACCAAAGACUGTT against Mill1 | inactive: -0.9
GGUGGAAGACAAGAGGAUATT against Sytl5 | inactive: -0.348
GCAUUGAAAUCGUUAAAGCTT against AI467484 | inactive: 0.56
GGCUGCUCUAUUAUAAGAATT against Centa2 | inactive: 0.11
GGAAGUUGGUGAGCUGGUATT against Ccl17 | inactive: -1.95
GGGACAAGAUCUGAACUUCTT against Rgl3 | inactive: -0.136
CCUGUUAGCUGAAUUCAACTT against Entpd4 | inactive: 0.86
UCAUUGAGAAAGGAGAAGATT against Cox17 | inactive: 0.93
CGUAGACCUUUUCCACUACTT against Plod1 | inactive: 1.33
GCUUACCUAACUCUUAAACTT against Gpr126 | inactive: -0.129
GCCUCCUUGUCUGGAAAUUTT against 9130023F12Rik | inactive: -0.502
GUAGAAGAGUUUCCCACGGTT against LOC432555 | inactive: 1.88
GGCAUGAAACCUCCAAAGCTT against 1520401A03Rik | inactive: 0.769
CCUCAAUGAGGUCCUGAUGTT against Olfr108 | inactive: -1.01
GGAUGAAAAAGCUCACUUUTT against Srms | inactive: -1.36
GGACAUGAAGAUCAAGUCCTT against Rps2 | inactive: -0.132
GGUCAGAACAACGACAAGUTT against Tpcn1 | inactive: 1.12
GGCCAAGAAGGUGUGGUACTT against 2610510L01Rik | inactive: -0.289
GCUCCUAUGCAAACAUUGCTT against Olfr1390 | inactive: 0.016
GGUGGAAGGCACUUUUAUUTT against Zmpste24 | inactive: 0.649

From PubChem BioAssay AID1347423 (Functional Genomics Laboratory (NCATS/FGL), 2020)
